# From the supplement of paper PMC6411743
# The chains behind the UniProt entries cited, without tags or fusion partners. Where a name states a change or a piece, a line headed by the entry shows the natural chain unless it says otherwise.
# UniProt P48643, whole entry: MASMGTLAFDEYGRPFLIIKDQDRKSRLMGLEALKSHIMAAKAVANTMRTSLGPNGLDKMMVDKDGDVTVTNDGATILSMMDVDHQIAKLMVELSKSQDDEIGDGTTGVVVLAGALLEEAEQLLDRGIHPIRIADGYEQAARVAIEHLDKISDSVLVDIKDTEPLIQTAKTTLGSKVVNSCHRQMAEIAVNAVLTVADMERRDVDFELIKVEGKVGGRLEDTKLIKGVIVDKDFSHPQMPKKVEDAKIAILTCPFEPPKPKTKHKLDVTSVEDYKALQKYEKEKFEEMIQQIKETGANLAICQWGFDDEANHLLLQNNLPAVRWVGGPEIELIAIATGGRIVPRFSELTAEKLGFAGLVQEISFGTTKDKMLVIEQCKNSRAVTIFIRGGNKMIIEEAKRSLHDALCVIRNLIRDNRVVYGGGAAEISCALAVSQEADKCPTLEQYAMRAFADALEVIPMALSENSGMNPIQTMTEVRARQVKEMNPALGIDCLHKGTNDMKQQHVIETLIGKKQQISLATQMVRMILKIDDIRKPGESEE
# UniProt P49914: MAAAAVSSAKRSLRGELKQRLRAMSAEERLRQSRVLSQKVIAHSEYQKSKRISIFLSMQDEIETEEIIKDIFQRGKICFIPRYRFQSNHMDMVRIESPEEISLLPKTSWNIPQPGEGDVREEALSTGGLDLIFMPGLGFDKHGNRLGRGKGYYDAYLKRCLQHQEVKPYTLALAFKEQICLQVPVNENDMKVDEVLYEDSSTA
# UniProt P52758: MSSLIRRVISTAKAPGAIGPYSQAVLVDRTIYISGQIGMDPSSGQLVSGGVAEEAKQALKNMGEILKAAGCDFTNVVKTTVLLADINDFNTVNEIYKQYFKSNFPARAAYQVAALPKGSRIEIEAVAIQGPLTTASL
# UniProt P48449: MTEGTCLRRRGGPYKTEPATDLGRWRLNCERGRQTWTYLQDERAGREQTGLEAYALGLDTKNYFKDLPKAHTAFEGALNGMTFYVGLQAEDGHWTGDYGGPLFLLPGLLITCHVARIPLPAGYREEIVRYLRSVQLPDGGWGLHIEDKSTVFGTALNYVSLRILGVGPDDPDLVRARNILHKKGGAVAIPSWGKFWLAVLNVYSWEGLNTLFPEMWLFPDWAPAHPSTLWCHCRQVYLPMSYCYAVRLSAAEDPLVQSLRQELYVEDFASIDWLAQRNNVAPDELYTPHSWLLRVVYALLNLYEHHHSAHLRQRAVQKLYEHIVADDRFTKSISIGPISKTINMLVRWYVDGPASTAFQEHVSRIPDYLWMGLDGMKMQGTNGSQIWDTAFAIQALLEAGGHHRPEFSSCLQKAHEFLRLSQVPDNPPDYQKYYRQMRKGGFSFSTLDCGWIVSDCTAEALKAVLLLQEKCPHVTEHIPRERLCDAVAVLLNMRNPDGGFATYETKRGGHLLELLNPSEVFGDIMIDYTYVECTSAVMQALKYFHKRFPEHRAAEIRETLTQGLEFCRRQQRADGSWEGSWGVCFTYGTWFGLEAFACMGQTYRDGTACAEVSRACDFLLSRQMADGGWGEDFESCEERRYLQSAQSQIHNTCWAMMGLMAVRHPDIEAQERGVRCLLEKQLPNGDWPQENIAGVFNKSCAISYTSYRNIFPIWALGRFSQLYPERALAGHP
# UniProt P41208: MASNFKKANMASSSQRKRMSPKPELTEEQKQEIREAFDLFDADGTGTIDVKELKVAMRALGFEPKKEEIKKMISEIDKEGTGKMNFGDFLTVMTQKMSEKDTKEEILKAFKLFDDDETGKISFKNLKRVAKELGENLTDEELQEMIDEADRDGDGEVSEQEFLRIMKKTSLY
# UniProt P51858: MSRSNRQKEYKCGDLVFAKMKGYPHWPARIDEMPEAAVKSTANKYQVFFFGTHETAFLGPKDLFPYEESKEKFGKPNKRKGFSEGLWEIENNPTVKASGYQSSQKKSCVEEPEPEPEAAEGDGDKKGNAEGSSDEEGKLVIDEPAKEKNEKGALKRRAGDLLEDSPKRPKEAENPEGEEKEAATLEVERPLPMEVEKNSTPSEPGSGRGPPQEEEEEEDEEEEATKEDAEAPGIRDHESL
# UniProt P48147: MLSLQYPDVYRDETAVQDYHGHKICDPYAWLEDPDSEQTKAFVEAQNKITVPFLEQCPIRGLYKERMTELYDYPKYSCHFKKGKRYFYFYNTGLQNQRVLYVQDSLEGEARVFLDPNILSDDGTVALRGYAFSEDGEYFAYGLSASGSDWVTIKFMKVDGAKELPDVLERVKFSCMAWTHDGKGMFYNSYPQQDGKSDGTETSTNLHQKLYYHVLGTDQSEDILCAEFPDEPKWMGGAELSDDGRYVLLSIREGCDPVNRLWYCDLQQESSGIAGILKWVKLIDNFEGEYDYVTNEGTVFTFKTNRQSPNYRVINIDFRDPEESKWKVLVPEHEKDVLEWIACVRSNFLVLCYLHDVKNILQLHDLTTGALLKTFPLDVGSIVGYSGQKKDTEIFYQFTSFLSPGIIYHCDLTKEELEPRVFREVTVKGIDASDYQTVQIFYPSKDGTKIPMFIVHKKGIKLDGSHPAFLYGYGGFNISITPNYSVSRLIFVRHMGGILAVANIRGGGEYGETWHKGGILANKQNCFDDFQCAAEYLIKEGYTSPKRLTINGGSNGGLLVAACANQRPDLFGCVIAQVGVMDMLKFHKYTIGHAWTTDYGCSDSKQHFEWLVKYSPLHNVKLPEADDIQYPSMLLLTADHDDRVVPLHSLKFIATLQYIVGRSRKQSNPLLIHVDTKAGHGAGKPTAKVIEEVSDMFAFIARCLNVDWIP
# UniProt P51571: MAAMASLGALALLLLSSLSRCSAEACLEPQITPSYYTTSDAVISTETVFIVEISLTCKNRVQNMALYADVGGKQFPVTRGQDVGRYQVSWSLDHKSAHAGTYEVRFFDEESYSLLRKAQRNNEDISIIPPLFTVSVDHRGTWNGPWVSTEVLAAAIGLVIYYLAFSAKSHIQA
# UniProt P40337, whole entry, looked up: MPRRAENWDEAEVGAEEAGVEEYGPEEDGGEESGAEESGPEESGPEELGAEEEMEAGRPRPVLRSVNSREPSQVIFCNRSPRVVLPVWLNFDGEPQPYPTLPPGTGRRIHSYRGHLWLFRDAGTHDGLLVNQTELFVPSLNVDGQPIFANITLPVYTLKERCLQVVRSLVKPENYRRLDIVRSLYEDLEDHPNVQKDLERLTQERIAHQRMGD
# UniProt P52824: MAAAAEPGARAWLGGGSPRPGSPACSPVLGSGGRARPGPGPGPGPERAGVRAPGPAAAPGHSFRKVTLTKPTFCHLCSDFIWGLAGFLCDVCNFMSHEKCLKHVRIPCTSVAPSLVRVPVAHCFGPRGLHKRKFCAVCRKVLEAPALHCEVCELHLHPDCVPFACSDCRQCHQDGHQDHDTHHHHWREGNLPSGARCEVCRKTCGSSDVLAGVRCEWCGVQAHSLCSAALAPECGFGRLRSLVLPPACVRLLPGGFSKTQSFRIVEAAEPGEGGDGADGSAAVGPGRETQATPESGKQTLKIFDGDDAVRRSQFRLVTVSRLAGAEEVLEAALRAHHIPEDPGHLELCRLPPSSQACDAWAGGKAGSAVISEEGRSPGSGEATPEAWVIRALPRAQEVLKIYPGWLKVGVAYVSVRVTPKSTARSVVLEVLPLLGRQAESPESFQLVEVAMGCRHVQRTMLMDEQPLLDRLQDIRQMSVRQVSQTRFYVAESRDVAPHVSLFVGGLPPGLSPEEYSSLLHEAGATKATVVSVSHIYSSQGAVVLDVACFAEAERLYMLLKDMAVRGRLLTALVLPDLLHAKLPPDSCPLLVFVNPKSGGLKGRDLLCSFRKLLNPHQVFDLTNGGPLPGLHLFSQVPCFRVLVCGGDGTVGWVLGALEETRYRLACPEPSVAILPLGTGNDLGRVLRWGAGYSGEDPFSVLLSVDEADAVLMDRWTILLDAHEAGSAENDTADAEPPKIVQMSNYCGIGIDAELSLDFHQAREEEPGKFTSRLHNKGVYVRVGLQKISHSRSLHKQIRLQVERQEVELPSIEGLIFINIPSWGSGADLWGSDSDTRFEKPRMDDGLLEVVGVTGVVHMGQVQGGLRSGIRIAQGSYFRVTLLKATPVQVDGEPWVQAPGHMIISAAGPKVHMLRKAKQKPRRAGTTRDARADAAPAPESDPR
# UniProt P49770: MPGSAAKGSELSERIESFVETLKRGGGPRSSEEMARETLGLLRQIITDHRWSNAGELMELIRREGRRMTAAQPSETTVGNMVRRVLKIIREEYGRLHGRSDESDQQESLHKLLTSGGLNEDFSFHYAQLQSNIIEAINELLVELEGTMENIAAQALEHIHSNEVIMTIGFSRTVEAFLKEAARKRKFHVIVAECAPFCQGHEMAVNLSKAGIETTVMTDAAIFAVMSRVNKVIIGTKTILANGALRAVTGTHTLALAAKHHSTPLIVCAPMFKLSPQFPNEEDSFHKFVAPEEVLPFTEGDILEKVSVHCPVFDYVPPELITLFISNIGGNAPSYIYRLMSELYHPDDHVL
# UniProt P46736, whole entry: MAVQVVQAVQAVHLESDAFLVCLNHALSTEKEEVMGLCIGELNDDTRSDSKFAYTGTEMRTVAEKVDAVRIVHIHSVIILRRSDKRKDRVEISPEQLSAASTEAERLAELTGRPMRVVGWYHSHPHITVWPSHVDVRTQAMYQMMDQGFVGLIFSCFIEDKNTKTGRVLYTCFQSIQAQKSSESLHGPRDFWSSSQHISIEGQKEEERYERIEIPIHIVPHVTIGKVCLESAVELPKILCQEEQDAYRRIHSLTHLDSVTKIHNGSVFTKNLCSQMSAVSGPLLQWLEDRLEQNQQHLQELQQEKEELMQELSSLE
# UniProt P55160: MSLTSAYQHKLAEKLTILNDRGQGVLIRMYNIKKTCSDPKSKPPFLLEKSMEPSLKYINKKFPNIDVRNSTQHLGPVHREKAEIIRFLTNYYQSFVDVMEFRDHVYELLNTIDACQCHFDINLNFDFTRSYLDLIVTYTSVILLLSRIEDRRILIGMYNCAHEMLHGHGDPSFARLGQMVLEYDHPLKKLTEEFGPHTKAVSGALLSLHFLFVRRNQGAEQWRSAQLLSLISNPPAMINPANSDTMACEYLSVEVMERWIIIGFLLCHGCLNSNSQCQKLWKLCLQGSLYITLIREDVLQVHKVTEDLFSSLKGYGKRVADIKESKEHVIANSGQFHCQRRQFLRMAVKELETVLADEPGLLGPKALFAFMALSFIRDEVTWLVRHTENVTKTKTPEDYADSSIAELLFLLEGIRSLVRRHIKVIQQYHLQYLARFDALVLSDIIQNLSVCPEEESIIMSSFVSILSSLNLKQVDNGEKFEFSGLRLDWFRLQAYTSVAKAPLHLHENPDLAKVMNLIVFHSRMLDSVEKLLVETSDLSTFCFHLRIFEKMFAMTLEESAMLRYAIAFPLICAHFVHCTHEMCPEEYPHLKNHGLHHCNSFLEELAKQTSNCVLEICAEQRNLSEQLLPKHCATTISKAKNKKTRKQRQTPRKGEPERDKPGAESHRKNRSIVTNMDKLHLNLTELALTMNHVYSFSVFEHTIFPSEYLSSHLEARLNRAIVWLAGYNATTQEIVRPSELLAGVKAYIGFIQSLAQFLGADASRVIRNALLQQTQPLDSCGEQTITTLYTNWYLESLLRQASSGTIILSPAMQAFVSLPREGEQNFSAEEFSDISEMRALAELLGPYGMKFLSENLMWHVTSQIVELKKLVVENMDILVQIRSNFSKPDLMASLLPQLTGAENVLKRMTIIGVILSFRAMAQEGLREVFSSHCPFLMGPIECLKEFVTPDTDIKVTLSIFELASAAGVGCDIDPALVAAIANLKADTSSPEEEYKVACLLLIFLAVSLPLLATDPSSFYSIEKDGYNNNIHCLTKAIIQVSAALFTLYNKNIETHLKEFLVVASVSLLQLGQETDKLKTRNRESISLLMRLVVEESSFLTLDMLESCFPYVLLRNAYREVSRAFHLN
# UniProt P42898: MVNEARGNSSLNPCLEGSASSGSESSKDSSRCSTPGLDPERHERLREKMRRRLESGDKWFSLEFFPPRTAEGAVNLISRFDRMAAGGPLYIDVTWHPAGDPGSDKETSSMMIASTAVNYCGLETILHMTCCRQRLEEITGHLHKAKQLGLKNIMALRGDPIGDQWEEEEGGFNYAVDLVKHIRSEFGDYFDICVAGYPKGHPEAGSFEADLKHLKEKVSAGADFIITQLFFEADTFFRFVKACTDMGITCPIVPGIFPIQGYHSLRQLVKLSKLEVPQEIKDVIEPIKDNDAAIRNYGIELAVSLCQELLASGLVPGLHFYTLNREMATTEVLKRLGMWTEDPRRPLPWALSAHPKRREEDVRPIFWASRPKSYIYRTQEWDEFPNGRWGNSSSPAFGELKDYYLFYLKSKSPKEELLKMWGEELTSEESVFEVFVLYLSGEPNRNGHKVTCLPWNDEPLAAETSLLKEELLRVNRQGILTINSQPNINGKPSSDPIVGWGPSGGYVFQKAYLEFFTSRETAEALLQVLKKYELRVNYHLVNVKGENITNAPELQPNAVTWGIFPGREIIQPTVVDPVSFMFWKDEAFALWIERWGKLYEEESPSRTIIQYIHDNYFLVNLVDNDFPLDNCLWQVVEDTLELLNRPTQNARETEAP
# ± gives the standard deviation of the averaged measurements. The list shows a part of the results, in another mix than the full data.
# Compound: Nc1ncnc2c1ncn2[C@@H]1O[C@H](COP(=O)(O)OP(=O)(O)NP(=O)(O)O)[C@@H](O)[C@H]1O [adenylyl imidodiphosphate]
# Test: NP40-soluble protein abundance relative to vehicle (solubility fold change) (ratio); higher = more soluble protein in presence of AMP-PNP
# Summary of the method: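 In three independent experiments, Jurkat crude lysate made by Dounce homogenisation was treated for 10 min at room temperature and then 3 min at 37 °C with eight concentrations ranging from 0.1 to 10 mM. It was then solubilised with 0.8% NP40 plus benzonase for 60 min at 4 °C and ultracentrifuged. The supernatant was TMT-labelled for LC-MS/MS, and each value is the fold change against the detergent-processed vehicle for the same replicate, using vsn-normalised intensities.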
Target,NP40-soluble protein abundance (concentration: 1mM),NP40-soluble protein abundance (concentration: 2mM),NP40-soluble protein abundance (concentration: 4mM),NP40-soluble protein abundance (concentration: 6mM),NP40-soluble protein abundance (concentration: 8mM),NP40-soluble protein abundance (concentration: 10mM)
USP8 (UniProt P40818),1.036 ± 0.0058,1.05 ± 0.033,1.048 ± 0.0058,0.997 ± 0.015,0.996 ± 0.042,1.01 ± 0.033
PSMC4 (UniProt P43686),0.906 ± 0.041,0.921 ± 0.06,0.885 ± 0.08,0.871 ± 0.079,0.866 ± 0.082,0.859 ± 0.1
SLC25A1 (UniProt P53007),0.915 ± 0.044,0.857 ± 0.021,0.931 ± 0.089,0.983 ± 0.075,1.04 ± 0.059,1.06 ± 0.15
UniProt P49748 and related entries,0.946 ± 0.041,0.877 ± 0.086,0.9404 ± 0.0076,0.972 ± 0.066,0.995 ± 0.018,0.949 ± 0.019
UniProt P43307 and related entries,0.945 ± 0.056,0.966 ± 0.02,1 ± 0.066,0.985 ± 0.049,1.03 ± 0.061,0.977 ± 0.1
CCT5 (UniProt P48643),1.01 ± 0.069,0.957 ± 0.078,0.955 ± 0.059,0.929 ± 0.12,0.935 ± 0.079,0.904 ± 0.15
MLH1 (UniProt P40692),1.1 ± 0.07,1.1 ± 0.17,1.18 ± 0.12,1.17 ± 0.1,1.2 ± 0.12,1.18 ± 0.12
UniProt P50548 and related entries,0.96 ± 0.017,1.02 ± 0.045,0.953 ± 0.024,0.92 ± 0.066,0.892 ± 0.064,0.913 ± 0.081
UniProt P52739 and related entries,0.97 ± 0.027,0.965 ± 0.027,0.97 ± 0.022,0.98 ± 0.043,0.9727 ± 0.0037,0.962 ± 0.016
UniProt P50851 and related entries,0.983 ± 0.025,0.958 ± 0.012,0.978 ± 0.017,0.936 ± 0.015,0.943 ± 0.015,0.912 ± 0.017
SLC1A4 (UniProt P43007),1.029 ± 0.0013,1.05 ± 0.024,1.017 ± 0.0062,0.998 ± 0.041,0.996 ± 0.023,0.979 ± 0.018
UniProt P46783 and related entries,1.03 ± 0.055,1.03 ± 0.045,0.97 ± 0.054,0.871 ± 0.11,0.845 ± 0.059,0.882 ± 0.11
UniProt P49959,0.995 ± 0.035,1.01 ± 0.013,1.02 ± 0.032,1.03 ± 0.056,1.01 ± 0.04,0.997 ± 0.025
MTHFS (UniProt P49914),1 ± 0.037,1.01 ± 0.021,1.01 ± 0.051,1.03 ± 0.031,1.03 ± 0.057,1.06 ± 0.022
UniProt P52758,0.978 ± 0.042,0.986 ± 0.043,0.978 ± 0.044,1.02 ± 0.085,1 ± 0.09,1 ± 0.067
UniProt P48449 and related entries,0.968 ± 0.035,0.857 ± 0.13,0.973 ± 0.026,0.943 ± 0.029,0.995 ± 0.015,0.924 ± 0.033
CETN2 (UniProt P41208),0.97 ± 0.043,1.03 ± 0.029,0.938 ± 0.04,0.931 ± 0.031,0.914 ± 0.026,0.882 ± 0.031
UniProt P53609 and related entries,1.04 ± 0.02,0.993 ± 0.029,1.023 ± 0.0089,1.01 ± 0.061,1.05 ± 0.015,1.02 ± 0.025
UniProt P50613,0.99 ± 0.042,0.942 ± 0.065,0.968 ± 0.039,1.01 ± 0.027,1.01 ± 0.031,0.994 ± 0.036
HDGF (UniProt P51858),1 ± 0.028,1.08 ± 0.08,0.959 ± 0.069,0.995 ± 0.025,0.943 ± 0.04,0.977 ± 0.085

# Not a retest: entries from further up.
Target,NP40-soluble protein abundance (concentration: 1mM),NP40-soluble protein abundance (concentration: 2mM),NP40-soluble protein abundance (concentration: 4mM),NP40-soluble protein abundance (concentration: 6mM),NP40-soluble protein abundance (concentration: 8mM),NP40-soluble protein abundance (concentration: 10mM)
USP8 (UniProt P40818),1.036 ± 0.0058,1.05 ± 0.033,1.048 ± 0.0058,0.997 ± 0.015,0.996 ± 0.042,1.01 ± 0.033
PSMC4 (UniProt P43686),0.906 ± 0.041,0.921 ± 0.06,0.885 ± 0.08,0.871 ± 0.079,0.866 ± 0.082,0.859 ± 0.1
SLC25A1 (UniProt P53007),0.915 ± 0.044,0.857 ± 0.021,0.931 ± 0.089,0.983 ± 0.075,1.04 ± 0.059,1.06 ± 0.15
UniProt P49748 and related entries,0.946 ± 0.041,0.877 ± 0.086,0.9404 ± 0.0076,0.972 ± 0.066,0.995 ± 0.018,0.949 ± 0.019
UniProt P43307 and related entries,0.945 ± 0.056,0.966 ± 0.02,1 ± 0.066,0.985 ± 0.049,1.03 ± 0.061,0.977 ± 0.1
CCT5 (UniProt P48643),1.01 ± 0.069,0.957 ± 0.078,0.955 ± 0.059,0.929 ± 0.12,0.935 ± 0.079,0.904 ± 0.15
MLH1 (UniProt P40692),1.1 ± 0.07,1.1 ± 0.17,1.18 ± 0.12,1.17 ± 0.1,1.2 ± 0.12,1.18 ± 0.12
UniProt P50548 and related entries,0.96 ± 0.017,1.02 ± 0.045,0.953 ± 0.024,0.92 ± 0.066,0.892 ± 0.064,0.913 ± 0.081
UniProt P52739 and related entries,0.97 ± 0.027,0.965 ± 0.027,0.97 ± 0.022,0.98 ± 0.043,0.9727 ± 0.0037,0.962 ± 0.016
UniProt P50851 and related entries,0.983 ± 0.025,0.958 ± 0.012,0.978 ± 0.017,0.936 ± 0.015,0.943 ± 0.015,0.912 ± 0.017
SLC1A4 (UniProt P43007),1.029 ± 0.0013,1.05 ± 0.024,1.017 ± 0.0062,0.998 ± 0.041,0.996 ± 0.023,0.979 ± 0.018

# Next part

Target,NP40-soluble protein abundance (concentration: 1mM),NP40-soluble protein abundance (concentration: 2mM),NP40-soluble protein abundance (concentration: 4mM),NP40-soluble protein abundance (concentration: 6mM),NP40-soluble protein abundance (concentration: 8mM),NP40-soluble protein abundance (concentration: 10mM)
CRKL (UniProt P46109),1.026 ± 0.0079,1.04 ± 0.03,1.03 ± 0.0095,0.998 ± 0.022,0.985 ± 0.018,0.985 ± 0.049
PREP (UniProt P48147),0.9844 ± 0.0059,0.897 ± 0.14,0.96 ± 0.032,0.933 ± 0.012,0.965 ± 0.021,0.906 ± 0.018
UniProt P47897 and related entries,0.972 ± 0.076,0.897 ± 0.18,0.949 ± 0.14,0.923 ± 0.13,0.946 ± 0.13,0.903 ± 0.18
NCBP2 (UniProt P52298),1.02 ± 0.043,1.03 ± 0.049,1.04 ± 0.051,1.07 ± 0.014,1.05 ± 0.037,1.1 ± 0.019
CDKN1B (UniProt P46527),1.06 ± 0.034,1.1 ± 0.1,1.04 ± 0.03,0.987 ± 0.064,0.964 ± 0.019,0.996 ± 0.068
UniProt P49406 and related entries,0.948 ± 0.081,0.907 ± 0.14,0.939 ± 0.12,0.9 ± 0.087,0.927 ± 0.12,0.904 ± 0.11
CPT1A (UniProt P50416),0.925 ± 0.017,0.92 ± 0.093,0.924 ± 0.025,0.948 ± 0.031,0.938 ± 0.045,0.979 ± 0.059
UniProt P52306 and related entries,0.968 ± 0.043,0.974 ± 0.038,0.973 ± 0.04,1.03 ± 0.076,1.01 ± 0.074,1.01 ± 0.068
UniProt P48059-5,1.01 ± 0.043,0.961 ± 0.086,0.981 ± 0.031,0.942 ± 0.034,0.96 ± 0.044,0.958 ± 0.087
GMPS (UniProt P49915),1 ± 0.02,0.933 ± 0.053,0.971 ± 0.023,0.9656 ± 0.0086,0.976 ± 0.01,0.941 ± 0.035
ARHGDIA (UniProt P52565),0.978 ± 0.013,1.01 ± 0.015,0.97 ± 0.053,1.004 ± 0.0076,0.9792 ± 0.0045,0.985 ± 0.019
RPL29 (UniProt P47914),0.989 ± 0.068,1.06 ± 0.05,0.941 ± 0.091,0.911 ± 0.12,0.843 ± 0.093,0.947 ± 0.18
UniProt P48960 and related entries,1.06 ± 0.062,1.1 ± 0.11,1.05 ± 0.1,1.03 ± 0.034,1.05 ± 0.069,1.03 ± 0.1
SSR4 (UniProt P51571),0.998 ± 0.014,0.961 ± 0.064,0.988 ± 0.019,0.977 ± 0.027,0.998 ± 0.011,0.981 ± 0.037
PHKA2 (UniProt P46019),0.976 ± 0.043,0.954 ± 0.093,0.96 ± 0.057,0.919 ± 0.081,0.92 ± 0.077,0.917 ± 0.098
UniProt P45880 and related entries,1 ± 0.045,0.959 ± 0.017,0.984 ± 0.046,1.04 ± 0.075,1.07 ± 0.039,1.02 ± 0.045
UniProt P42285,1.006 ± 0.0056,0.982 ± 0.062,1.07 ± 0.033,1.1 ± 0.036,1.14 ± 0.068,1.13 ± 0.089
UniProt P40337 and related entries,0.981 ± 0.036,0.99 ± 0.021,0.997 ± 0.022,0.973 ± 0.055,1.02 ± 0.053,0.961 ± 0.073
UniProt P49840,1.01 ± 0.04,0.963 ± 0.045,1.02 ± 0.017,1.03 ± 0.086,1.08 ± 0.048,1.09 ± 0.058
UniProt P52824 and related entries,0.978 ± 0.0098,0.979 ± 0.023,0.955 ± 0.028,0.99 ± 0.025,0.96 ± 0.039,0.986 ± 0.03

Target,NP40-soluble protein abundance (concentration: 1mM),NP40-soluble protein abundance (concentration: 2mM),NP40-soluble protein abundance (concentration: 4mM),NP40-soluble protein abundance (concentration: 6mM),NP40-soluble protein abundance (concentration: 8mM),NP40-soluble protein abundance (concentration: 10mM)
PRCP (UniProt P42785),0.988 ± 0.068,1.03 ± 0.12,1.01 ± 0.12,1.15 ± 0.15,1.14 ± 0.099,1.17 ± 0.17
EIF2B2 (UniProt P49770),0.921 ± 0.037,0.904 ± 0.047,0.929 ± 0.022,0.945 ± 0.056,0.956 ± 0.069,0.958 ± 0.09
UniProt P46736 and related entries,0.961 ± 0.048,0.943 ± 0.03,0.984 ± 0.024,0.985 ± 0.04,0.995 ± 0.022,0.955 ± 0.019
UniProt P51513 and related entries,0.999 ± 0.023,1 ± 0.013,0.99 ± 0.034,1 ± 0.016,0.987 ± 0.032,1.01 ± 0.025
UniProt P49641 and related entries,0.9774 ± 0.0012,0.98 ± 0.018,0.9624 ± 0.0049,0.981 ± 0.052,0.974 ± 0.047,0.993 ± 0.052
UniProt P50995 and related entries,0.981 ± 0.042,1.03 ± 0.11,1.01 ± 0.04,1.05 ± 0.074,1.04 ± 0.09,1.01 ± 0.11
FNTA (UniProt P49354),0.958 ± 0.056,0.93 ± 0.029,0.966 ± 0.06,1.03 ± 0.088,1.06 ± 0.049,1.01 ± 0.076
UniProt P55060 and related entries,1 ± 0.012,1.02 ± 0.11,0.987 ± 0.032,1.01 ± 0.04,0.985 ± 0.027,1.02 ± 0.04
ELL (UniProt P55199),1.02 ± 0.034,1.05 ± 0.069,1.06 ± 0.043,1.07 ± 0.026,1.05 ± 0.029,1.11 ± 0.04
RANBP2 (UniProt P49792),1.04 ± 0.038,1.06 ± 0.027,1.04 ± 0.027,1.06 ± 0.056,1.07 ± 0.066,1.16 ± 0.082
MAPKAPK2 (UniProt P49137),0.995 ± 0.011,1.02 ± 0.082,1.02 ± 0.017,1.05 ± 0.058,1.05 ± 0.058,1.07 ± 0.046
UniProt P49841 and related entries,0.991 ± 0.019,0.955 ± 0.06,0.988 ± 0.018,0.982 ± 0.023,0.998 ± 0.028,1.01 ± 0.043
UniProt P52735 and related entries,0.969 ± 0.017,0.947 ± 0.024,0.945 ± 0.028,0.934 ± 0.051,0.936 ± 0.039,0.918 ± 0.063
UniProt P41214,1.02 ± 0.032,0.996 ± 0.059,1.05 ± 0.04,1.02 ± 0.025,1.04 ± 0.061,1.05 ± 0.041
RABIF (UniProt P47224),0.9979 ± 0.0065,1.01 ± 0.032,0.987 ± 0.023,1 ± 0.013,1.01 ± 0.05,1.02 ± 0.072
NEK4 (UniProt P51957),0.998 ± 0.059,1.01 ± 0.1,1 ± 0.094,0.967 ± 0.09,0.974 ± 0.069,0.981 ± 0.09
NCKAP1L (UniProt P55160),0.975 ± 0.021,0.905 ± 0.085,0.955 ± 0.027,0.955 ± 0.072,0.975 ± 0.046,0.914 ± 0.037
NT5C2 (UniProt P49902),0.972 ± 0.053,0.888 ± 0.071,0.969 ± 0.05,1.06 ± 0.13,1.11 ± 0.12,1.05 ± 0.07
MTHFR (UniProt P42898),1.01 ± 0.048,0.963 ± 0.046,0.996 ± 0.052,1.01 ± 0.021,0.987 ± 0.025,0.979 ± 0.012
MARCKSL1 (UniProt P49006),1.04 ± 0.12,1.03 ± 0.063,0.977 ± 0.12,0.935 ± 0.17,0.891 ± 0.065,0.978 ± 0.047
